PubChem BioAssay AID1259331, Drosophila RNAi Screening Center | 2017
This is one part, drawn at random, of about 3,100 reagents tested. Over the whole deposit, 126 (4.1%) were called active. 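Calls are per reagent; zinc was so toxic that few knock-downs lowered ATP further, so most hits raise ATP.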 Raw values are not corrected between plates. Entries without a mark were called inactive. The numbers tell different reagents against one gene apart. Names joined by + are all predicted targets of the reagent. Not stated in the record: the amount of reagent.

Purpose: 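Knock-downs that alter ATP level after a high zinc chloride dose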 (primary screen)
Cells: Drosophila S2R+ cells
Reagent: long dsRNA against Drosophila genes
Time to read-out: 5 days (4 days knock-down, then 1 day zinc)
Treatment: zinc chloride at 15 mM final level for 1 day
Measurement: 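Luminescent ATP assay standing in for viability; Z score is the mean over three replicate plates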
Direction: mean Z score: higher = more ATP than other wells, better survival under zinc; ATP luminescence: higher = more ATP, more viable cells
Hit rule: 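Hit when the absolute Z score is greater than 1.5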
Meaning of the calls: active = hit, ATP up or down; inactive = not a hit

For Tret1-1 (Trehalose transporter 1-1) #1, what was measured?
mean Z score: -0.0834; ATP luminescence, replicate 1: 76376; ATP luminescence, replicate 2: 71213

What is on record for Tret1-1 (Trehalose transporter 1-1) #2?
mean Z score: 0.468; ATP luminescence, replicate 1: 69430; ATP luminescence, replicate 2: 67783

What is on record for sing (singles bar) #1?
mean Z score: 0.142; ATP luminescence, replicate 1: 46177; ATP luminescence, replicate 2: 45028

How did the screen score sing (singles bar) #2?
mean Z score: -0.328; ATP luminescence, replicate 1: 58797; ATP luminescence, replicate 2: 54339

What is on record for Lfg + asRNA:CR43468?
mean Z score: -0.514; ATP luminescence, replicate 1: 64199; ATP luminescence, replicate 2: 64189

For Nup93-2 (Nucleoporin 93kD-2), what was measured?
mean Z score: 0.628; ATP luminescence, replicate 1: 52757; ATP luminescence, replicate 2: 51631

Which result is listed for twz (tiwaz) #1?
mean Z score: 0.95; ATP luminescence, replicate 1: 64165; ATP luminescence, replicate 2: 45622

For twz (tiwaz) #2, what was measured?
mean Z score: -0.0699; ATP luminescence, replicate 1: 53276; ATP luminescence, replicate 2: 54680

What did the screen give for mthl12 (methuselah-like 12)?
mean Z score: -0.266; ATP luminescence, replicate 1: 37947; ATP luminescence, replicate 2: 42045

How did the screen score drd (drop dead) #1?
mean Z score: 0.178; ATP luminescence, replicate 1: 62518; ATP luminescence, replicate 2: 75621

With drd (drop dead) #2, what does the deposit list?
mean Z score: -0.584; ATP luminescence, replicate 1: 56862; ATP luminescence, replicate 2: 40167

Which result is listed for iav (inactive) #1?
mean Z score: -0.143; ATP luminescence, replicate 1: 61507; ATP luminescence, replicate 2: 56828

What is on record for iav (inactive) #2?
mean Z score: -0.504; ATP luminescence, replicate 1: 58248; ATP luminescence, replicate 2: 46125

A run of entries taken from the entries so far, for reference:
drd (drop dead) #1 — mean Z score = 0.178; ATP luminescence, replicate 1 = 62518; ATP luminescence, replicate 2 = 75621
drd (drop dead) #2 — mean Z score = -0.584; ATP luminescence, replicate 1 = 56862; ATP luminescence, replicate 2 = 40167
